In experiment [1] the target is SEL1L (human (endogenous in HEK293T)) (UniProt Q9UBV2). In words: affinity purification with mass spectrometry; anti-SEL1L IP and LC-MS/MS, substrate screen: HRD1 KO compared with WT, SEL1L KO and IgG samples of HEK293T cells; Group A hits also detected in WT, Group B hits only in HRD1 KO; 10 mg lysate.
The target of experiment [2] is SEL1L (mouse) (mouse (endogenous in brown adipose tissue and adipocytes)) (UniProt Q9Z2G6). In words: affinity purification with mass spectrometry; anti-SEL1L IP and LC-MS/MS, substrate screen: Hrd1-deficient compared with WT and Sel1L-deficient mouse brown adipose tissue and differentiated adipocytes; Group A hits also detected in WT, Group B hits only in Hrd1-deficient samples; 10 mg lysate.

Chains of the proteins cited; added tags and fusions are not shown. Residues count along the entry.
UniProt Q9UBV2, residues 22-794: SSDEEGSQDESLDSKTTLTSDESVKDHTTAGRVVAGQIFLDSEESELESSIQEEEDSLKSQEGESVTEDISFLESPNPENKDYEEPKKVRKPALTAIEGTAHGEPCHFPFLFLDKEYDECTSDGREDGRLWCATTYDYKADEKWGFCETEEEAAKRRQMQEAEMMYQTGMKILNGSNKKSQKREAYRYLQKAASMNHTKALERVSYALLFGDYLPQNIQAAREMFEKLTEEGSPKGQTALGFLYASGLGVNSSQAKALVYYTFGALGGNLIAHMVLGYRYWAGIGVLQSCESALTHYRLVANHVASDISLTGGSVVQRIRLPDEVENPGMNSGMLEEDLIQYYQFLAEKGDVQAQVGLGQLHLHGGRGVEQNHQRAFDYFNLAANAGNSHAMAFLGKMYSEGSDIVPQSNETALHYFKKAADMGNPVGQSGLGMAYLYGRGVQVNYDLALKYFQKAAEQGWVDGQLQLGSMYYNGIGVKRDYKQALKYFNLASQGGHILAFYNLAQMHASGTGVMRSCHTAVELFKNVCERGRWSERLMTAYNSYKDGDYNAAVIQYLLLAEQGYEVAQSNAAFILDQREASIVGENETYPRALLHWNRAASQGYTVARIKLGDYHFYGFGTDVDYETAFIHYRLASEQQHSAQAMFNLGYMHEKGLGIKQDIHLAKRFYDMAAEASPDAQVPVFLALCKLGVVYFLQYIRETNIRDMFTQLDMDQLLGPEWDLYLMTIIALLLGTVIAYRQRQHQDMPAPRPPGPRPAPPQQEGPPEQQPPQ
UniProt Q9Z2G6, residues 22-790: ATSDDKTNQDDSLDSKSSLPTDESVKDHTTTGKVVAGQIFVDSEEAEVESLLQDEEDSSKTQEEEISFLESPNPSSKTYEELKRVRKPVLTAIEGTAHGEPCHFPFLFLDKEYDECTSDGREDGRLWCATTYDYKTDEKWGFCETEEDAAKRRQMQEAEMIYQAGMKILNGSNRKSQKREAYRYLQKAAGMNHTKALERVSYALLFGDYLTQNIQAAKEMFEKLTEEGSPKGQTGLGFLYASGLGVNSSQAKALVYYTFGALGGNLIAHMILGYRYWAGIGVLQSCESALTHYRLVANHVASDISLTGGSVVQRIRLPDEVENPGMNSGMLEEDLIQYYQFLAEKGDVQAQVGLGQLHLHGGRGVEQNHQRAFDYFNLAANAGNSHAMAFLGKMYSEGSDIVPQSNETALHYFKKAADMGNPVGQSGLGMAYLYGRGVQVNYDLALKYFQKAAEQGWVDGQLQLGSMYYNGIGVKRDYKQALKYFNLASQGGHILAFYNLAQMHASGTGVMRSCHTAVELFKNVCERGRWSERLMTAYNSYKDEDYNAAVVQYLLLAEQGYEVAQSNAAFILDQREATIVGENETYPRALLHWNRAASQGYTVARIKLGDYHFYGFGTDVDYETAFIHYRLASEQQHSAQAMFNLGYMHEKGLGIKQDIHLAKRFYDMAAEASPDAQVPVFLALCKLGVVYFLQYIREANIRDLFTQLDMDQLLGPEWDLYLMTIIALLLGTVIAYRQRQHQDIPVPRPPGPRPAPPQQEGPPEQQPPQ
UniProt P18850: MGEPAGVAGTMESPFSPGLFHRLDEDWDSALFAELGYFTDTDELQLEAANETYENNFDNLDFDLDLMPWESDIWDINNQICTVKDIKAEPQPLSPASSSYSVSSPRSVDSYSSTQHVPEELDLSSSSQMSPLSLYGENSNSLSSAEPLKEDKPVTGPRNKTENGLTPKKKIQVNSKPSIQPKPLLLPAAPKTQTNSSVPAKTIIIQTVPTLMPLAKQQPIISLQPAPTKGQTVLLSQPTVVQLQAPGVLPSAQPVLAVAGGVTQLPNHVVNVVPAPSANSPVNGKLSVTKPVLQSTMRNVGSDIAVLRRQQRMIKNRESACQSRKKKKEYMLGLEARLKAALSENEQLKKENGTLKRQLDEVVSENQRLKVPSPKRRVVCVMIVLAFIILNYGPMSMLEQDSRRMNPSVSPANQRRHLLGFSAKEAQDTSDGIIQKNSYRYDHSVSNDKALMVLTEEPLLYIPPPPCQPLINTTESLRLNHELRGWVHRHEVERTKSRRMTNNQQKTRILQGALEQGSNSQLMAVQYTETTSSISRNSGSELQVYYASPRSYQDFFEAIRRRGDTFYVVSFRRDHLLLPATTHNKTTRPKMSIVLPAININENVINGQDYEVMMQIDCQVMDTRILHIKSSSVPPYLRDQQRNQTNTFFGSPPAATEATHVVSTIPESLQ
UniProt P01901, residues 22-369: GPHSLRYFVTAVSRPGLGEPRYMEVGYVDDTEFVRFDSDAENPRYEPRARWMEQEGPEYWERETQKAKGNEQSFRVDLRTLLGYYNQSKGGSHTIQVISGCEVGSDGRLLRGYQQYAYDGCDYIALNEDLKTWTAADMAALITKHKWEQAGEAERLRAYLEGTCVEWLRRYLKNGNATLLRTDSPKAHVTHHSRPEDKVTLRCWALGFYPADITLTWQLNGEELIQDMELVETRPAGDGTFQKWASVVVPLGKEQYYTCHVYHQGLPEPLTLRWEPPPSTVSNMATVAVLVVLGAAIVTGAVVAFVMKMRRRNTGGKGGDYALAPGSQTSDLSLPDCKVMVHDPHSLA
UniProt Q5T4B2, residues 23-595: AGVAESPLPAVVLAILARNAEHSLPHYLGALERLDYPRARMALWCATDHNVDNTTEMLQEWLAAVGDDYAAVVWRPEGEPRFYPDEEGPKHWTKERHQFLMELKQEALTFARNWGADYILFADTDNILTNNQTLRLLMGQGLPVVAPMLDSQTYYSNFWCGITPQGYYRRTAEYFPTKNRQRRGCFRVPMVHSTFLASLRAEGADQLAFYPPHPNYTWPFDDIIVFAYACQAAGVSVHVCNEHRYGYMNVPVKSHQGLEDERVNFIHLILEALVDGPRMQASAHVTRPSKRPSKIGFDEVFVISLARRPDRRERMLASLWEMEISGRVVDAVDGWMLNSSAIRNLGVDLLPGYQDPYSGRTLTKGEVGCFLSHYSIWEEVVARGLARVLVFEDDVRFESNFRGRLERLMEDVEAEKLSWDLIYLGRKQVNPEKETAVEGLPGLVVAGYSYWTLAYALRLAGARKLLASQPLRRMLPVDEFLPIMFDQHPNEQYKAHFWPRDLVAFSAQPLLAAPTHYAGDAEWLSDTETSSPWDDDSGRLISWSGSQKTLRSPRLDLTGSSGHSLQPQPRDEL
UniProt Q9DC69, residues 36-377: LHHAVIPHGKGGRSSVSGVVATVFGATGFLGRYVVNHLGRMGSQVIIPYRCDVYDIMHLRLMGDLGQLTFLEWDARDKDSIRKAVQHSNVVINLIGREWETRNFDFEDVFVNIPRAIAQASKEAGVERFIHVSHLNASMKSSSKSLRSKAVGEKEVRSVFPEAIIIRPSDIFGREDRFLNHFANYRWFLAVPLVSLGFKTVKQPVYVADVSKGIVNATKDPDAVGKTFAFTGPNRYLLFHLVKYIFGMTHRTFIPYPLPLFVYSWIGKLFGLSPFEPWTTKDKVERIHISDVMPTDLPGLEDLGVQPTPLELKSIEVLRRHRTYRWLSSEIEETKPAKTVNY
UniProt Q99720: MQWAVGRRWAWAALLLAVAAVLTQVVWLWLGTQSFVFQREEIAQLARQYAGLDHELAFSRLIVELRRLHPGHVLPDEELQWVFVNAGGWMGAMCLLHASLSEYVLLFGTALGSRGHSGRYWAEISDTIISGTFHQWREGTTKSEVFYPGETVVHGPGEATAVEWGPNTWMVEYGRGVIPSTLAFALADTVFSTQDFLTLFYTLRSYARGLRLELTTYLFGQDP
UniProt Q8JZU2, residues 14-311: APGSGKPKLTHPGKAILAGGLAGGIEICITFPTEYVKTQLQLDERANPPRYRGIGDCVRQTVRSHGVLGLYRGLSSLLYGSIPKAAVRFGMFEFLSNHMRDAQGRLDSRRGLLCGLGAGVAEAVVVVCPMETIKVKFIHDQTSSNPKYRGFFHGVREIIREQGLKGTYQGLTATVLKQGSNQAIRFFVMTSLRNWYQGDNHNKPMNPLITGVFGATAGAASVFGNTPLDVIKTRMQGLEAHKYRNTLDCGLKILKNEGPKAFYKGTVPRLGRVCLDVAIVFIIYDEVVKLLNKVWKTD
UniProt Q9EPR2, residues 26-192: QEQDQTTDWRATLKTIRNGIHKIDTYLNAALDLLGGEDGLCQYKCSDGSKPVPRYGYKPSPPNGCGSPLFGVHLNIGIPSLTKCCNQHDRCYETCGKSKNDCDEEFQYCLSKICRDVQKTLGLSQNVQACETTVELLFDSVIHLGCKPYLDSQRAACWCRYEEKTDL

The target in experiment [3] is SEL1L (human (endogenous in HEK293T)) (UniProt Q9UBV2). In words: affinity purification with mass spectrometry; anti-SEL1L IP and LC-MS/MS of the endogenous SEL1L interactome, WT vs. SEL1L KO HEK293T cells; 10 mg lysate.

Residue numbers refer to the chain shown, from its start. Results are given in words; binding and its absence hold for the method and conditions named. In cells and extracts the contact can be indirect. These calls come from enrichment with a bait or labelling near it, and not all partners need be listed.

For the molecule ATF6 (from UniProt P18850 1-670), the binding result in experiment [1] was “binds”.
As to “MHC class I (H2-K1) (from UniProt P01901 22-369)”, the binding result in experiment [2] was “binds”.
In the case of CERCAM (from UniProt Q5T4B2 23-595), in experiment [1], the binding entry is “binds”.
As to “NADH dehydrogenase NDUFA9 (mouse) (from UniProt Q9DC69 36-377)”, in experiment [2], the binding result is reported as “binds”.
As to SigmaR1 (from UniProt Q99720 1-223), the binding result in experiment [1] is listed as “binds”.
For the molecule “SLC25A1 (mouse) (from UniProt Q8JZU2 14-311)”, the binding result in experiment [2] was “binds”.

B1: SLC25A16 (mouse) (protein, UniProt Q8C0K5 1-332)
chain: MAALVAAAALAAAEPAPAVPQAAGSGGPTSRRDFYWLRSFLAGGIAGCCAKTTVAPLDRVKVLLQAHNRHYKHLGVLSTLRAVPQKEGYLGLYKGNGAMMIRIFPYGAIQFMAFEHYKTFITTKLGVSGHVHRLMAGSMAGMTAVICTYPLDVVRVRLAFQVKGEHTYSGIIHAFKTIYAKEGGFLGFYRGLMPTILGMAPYAGVSFFTFGTLKSVGLSYAPALLGRPSSDNPNVLVLKTHINLLCGGVAGAIAQTISYPFDVTRRRMQLGAVLPEFEKCLTMRETMKYVYGQHGIRRGLYRGLSLNYIRCIPSQAVAFTTYELMKQFFHLN
Turning to B1, the binding result in experiment [2] is given as “binds”.

B2: lipoprotein lipase (mouse) (protein, UniProt P11152 28-474)
chain: ADAGRDFSDIESKFALRTPEDTAEDTCHLIPGLADSVSNCHFNHSSKTFVVIHGWTVTGMYESWVPKLVAALYKREPDSNVIVVDWLYRAQQHYPVSAGYTKLVGNDVARFINWMEEEFNYPLDNVHLLGYSLGAHAAGVAGSLTNKKVNRITGLDPAGPNFEYAEAPSRLSPDDADFVDVLHTFTRGSPGRSIGIQKPVGHVDIYPNGGTFQPGCNIGEAIRVIAERGLGDVDQLVKCSHERSIHLFIDSLLNEENPSKAYRCNSKEAFEKGLCLSCRKNRCNNLGYEINKVRAKRSSKMYLKTRSQMPYKVFHYQVKIHFSGTEDGKQHNQAFEISLYGTVAESENIPFTLPEVSTNKTYSFLIYTEVDIGELLMMKLKWISDSYFSWPDWWSSPSFVIERIRVKAGETQKKVIFCAREKVSHLQKGKDSAVFVKCHDKSLKKSG
In the case of B2, in experiment [2], the binding entry is recorded as “binds”.

B3: alpha-L-fucosidase (protein, UniProt Q9BTY2 29-467)
chain: HSATRFDPTWESLDARQLPAWFDQAKFGIFIHWGVFSVPSFGSEWFWWYWQKEKIPKYVEFMKDNYPPSFKYEDFGPLFTAKFFNANQWADIFQASGAKYIVLTSKHHEGFTLWGSEYSWNWNAIDEGPKRDIVKELEVAIRNRTDLRFGLYYSLFEWFHPLFLEDESSSFHKRQFPVSKTLPELYELVNNYQPEVLWSDGDGGAPDQYWNSTGFLAWLYNESPVRGTVVTNDRWGAGSICKHGGFYTCSDRYNPGHLLPHKWENCMTIDKLSWGYRREAGISDYLTIEELVKQLVETVSCGGNLLMNIGPTLDGTISVVFEERLRQMGSWLKVNGEAIYETHTWRSQNDTVTPDVWYTSKPKEKLVYAIFLKWPTSGQLFLGHPKAILGATEVKLLGHGQPLNWISLEQNGIMVELPQLTIHQMPCKWGWALALTNVI
On to B3, for which, in experiment [1], the binding result was “binds”.

B4: UBE2J1 (mouse) (protein, UniProt Q9JJZ4 1-318)
chain: METRYNLKSPAVKRLMKEAAELKDPTDHYHAQPLEDNLFEWHFTVRGPPDSDFDGGVYHGRIVLPPEYPMKPPSIILLTANGRFEVGKKICLSISGHHPETWQPSWSIRTALLAIIGFMPTKGEGAIGSLDYTPEERRALAKKSQDFCCEGCGSAMKDVLLPLKSGSGSSQADQEAKELARQISFKAEVNSSGKTIAESDLNQCFSLNDSQDDLPTTFQGATASTSYGAQNPSGAPLPQPTQPAPKNTSMSPRQRRAQQQSQRRPSTSPDVLQGQPPRAHHTEHGGSAMLIIILTLALAALIFRRIYLANEYIFDFEL
On to B4, for which the binding result in experiment [2] is reported as “binds”.

B5: PIGK (mouse) (protein, UniProt Q9CXY9 28-395)
chain: GHIEDQAEQFFRSGHTNNWAVLVCTSRFWFNYRHVANTLSVYRSVKRLGIPDSHIVLMLADDMACNARNPKPATVFSHKNMELNVYGDDVEVDYRSYEVTVENFLRVLTGRVPPSTPRSKRLLSDDRSNILIYMTGHGGNGFLKFQDSEEITNIELADAFEQMWQKRRYNELLFIIDTCQGASMYERFYSPNIMALASSQVGEDSLSHQPDPAIGVHLMDRYTFYVLEFLEEINPASQTNMNDLFQVCPKSLCVSTPGHRTDLFQRDPKNVLITDFFGSVRKVEITTEKISLQWDSQVVDSSSKEDGTAEERMGPLKYAEQLPVAQIIHQKPKPRDWHPPGGFILGLWALIIMVFFKTYGIKHMKFIF
For the molecule B5, the binding result in experiment [2] is on record as “binds”.

B6: FAM8A1 (protein, UniProt Q9UBU6 1-413)
chain: MAEGPEEARGHPPGQDDGGGDHEPVPSLRGPPTTAVPCPRDDPQAEPQAPGRPTAPGLAAAAAADKLEPPRELRKRGEAASGSGAELQEQAGCEAPEAAAPRERPARLSAREYSRQVHEWLWQSYCGYLTWHSGLAAFPAYCSPQPSPQSFPSGGAAVPQAAAPPPPQLGYYNPFYFLSPGAAGPDPRTAAGISTPAPVAGLGPRAPHVQASVRATPVTRVGSAAPSRSPSETGRQAGREYVIPSLAHRFMAEMVDFFILFFIKATIVLSIMHLSGIKDISKFAMHYIIEEIDEDTSMEDLQKMMVVALIYRLLVCFYEIICIWGAGGATPGKFLLGLRVVTCDTSVLIAPSRVLVIPSSNVSITTSTIRALIKNFSIASFFPAFITLLFFQHNRTAYDIVAGTIVVKRNGVR
B6: the binding result in experiment [3] is recorded as “binds”.

B7: Group XIIA secretory phospholipase A2 (protein, UniProt Q9BZM1 23-189)
chain: QEQAQTTDWRATLKTIRNGVHKIDTYLNAALDLLGGEDGLCQYKCSDGSKPFPRYGYKPSPPNGCGSPLFGVHLNIGIPSLTKCCNQHDRCYETCGKSKNDCDEEFQYCLSKICRDVQKTLGLTQHVQACETTVELLFDSVIHLGCKPYLDSQRAACRCHYEEKTDL
With B7, in experiment [1], the binding result is given as “binds”.

B8: Group XIIA secretory phospholipase A2 (mouse) (protein, UniProt Q9EPR2 26-192)
chain: B7 chain with A4D, V20I, F52V, T124S, H126N, R158W, H160R
On to B8, for which the binding entry in experiment [2] is on record as “binds”.

B9: adiponectin (mouse) (protein, UniProt Q60994 18-247)
chain: EDDVTTTEELAPALVPPPKGTCAGWMAGIPGHPGHNGTPGRDGRDGTPGEKGEKGDAGLLGPKGETGDVGMTGAEGPRGFPGTPGRKGEPGEAAYVYRSAFSVGLETRVTVPNVPIRFTKIFYNQQNHYDGSTGKFYCNIPGLYYFSYHITVYMKDVKVSLFKKDKAVLFTYDQYQEKNVDQASGSVLLHLEVGDQVWLQVYGDGDHNGLYADNVNDSTFTGFLLYHDTN
For the molecule B9, the binding result in experiment [2] is “binds”.

B10: phosphatidylinositol glycan anchor biosynthesis class K (protein, UniProt Q92643 28-395)
chain: SHIEDQAEQFFRSGHTNNWAVLVCTSRFWFNYRHVANTLSVYRSVKRLGIPDSHIVLMLADDMACNPRNPKPATVFSHKNMELNVYGDDVEVDYRSYEVTVENFLRVLTGRIPPSTPRSKRLLSDDRSNILIYMTGHGGNGFLKFQDSEEITNIELADAFEQMWQKRRYNELLFIIDTCQGASMYERFYSPNIMALASSQVGEDSLSHQPDPAIGVHLMDRYTFYVLEFLEEINPASQTNMNDLFQVCPKSLCVSTPGHRTDLFQRDPKNVLITDFFGSVRKVEITTETIKLQQDSEIMESSYKEDQMDEKLMEPLKYAEQLPVAQIIHQKPKLKDWHPPGGFILGLWALIIMVFFKTYGIKHMKFIF
On to B10, for which the binding result in experiment [1] is given as “binds”.

B11: calnexin (mouse) (protein, UniProt P35564 21-591)
chain: HDGHDDDAIDIEDDLDDVIEEVEDSKSKSDASTPPSPKVTYKAPVPTGEVYFADSFDRGSLSGWILSKAKKDDTDDEIAKYDGKWEVDEMKETKLPGDKGLVLMSRAKHHAISAKLNKPFLFDTKPLIVQYEVNFQNGIECGGAYVKLLSKTAELSLDQFHDKTPYTIMFGPDKCGEDYKLHFIFRHKNPKTGVYEEKHAKRPDADLKTYFTDKKTHLYTLILNPDNSFEILVDQSVVNSGNLLNDMTPPVNPSREIEDPEDRKPEDWDERPKIADPDAVKPDDWDEDAPSKIPDEEATKPEGWLDDEPEYIPDPDAEKPEDWDEDMDGEWEAPQIANPKCESAPGCGVWQRPMIDNPNYKGKWKPPMIDNPNYQGIWKPRKIPNPDFFEDLEPFKMTPFSAIGLELWSMTSDIFFDNFIISGDRRVVDDWANDGWGLKKAADGAAEPGVVLQMLEAAEERPWLWVVYILTVALPVFLVILFCCSGKKQSNAMEYKKTDAPQPDVKDEEGKEEEKNKRDEEEEEEKLEEKQKSDAEEDGVTGSQDEEDSKPKAEEDEILNRSPRNRKPRRE
For B11, the binding result in experiment [2] is “binds”.

B12: UBE2J1 (protein, UniProt Q9Y385 1-318)
chain: METRYNLKSPAVKRLMKEAAELKDPTDHYHAQPLEDNLFEWHFTVRGPPDSDFDGGVYHGRIVLPPEYPMKPPSIILLTANGRFEVGKKICLSISGHHPETWQPSWSIRTALLAIIGFMPTKGEGAIGSLDYTPEERRALAKKSQDFCCEGCGSAMKDVLLPLKSGSDSSQADQEAKELARQISFKAEVNSSGKTISESDLNHSFSLTDLQDDIPTTFQGATASTSYGLQNSSAASFHQPTQPVAKNTSMSPRQRRAQQQSQRRLSTSPDVIQGHQPRDNHTDHGGSAVLIVILTLALAALIFRRIYLANEYIFDFEL
In the case of B12, the binding result in experiment [3] was “binds”.

B13: SLC25A35 (mouse) (protein, UniProt Q5SWT3 1-300)
chain: MDFLMSGVAACGACVFTNPLEVVKTRMQLQGELQAPGTYQRHYRNVFHAFFTIGKVDGLAALQKGLGPALLYQFLMNGIRLGTYGLAESRGYLHTNEGTHSPVRSAAAGALAGVMGAYLGSPIYMVKTHLQAQAASEIAVGHQYKHQGMFQALTEIGQKHGLVGLWRGAVGGLPRVVIGSSTQLCTFSSIKDLLSQWEIFPPQSWKVALAAAMVSGVAIVVAMTPFDVASTRLYNQPTDTRGKGLMYRGILDALLQTARTEGFFGMYKGIGASYFRLGPHTILSLFFWDQLRSFYNTYAK
Consider B13, for which the binding entry in experiment [2] is listed as “binds”.

B14: NADH dehydrogenase NDUFA1 (mouse) (protein, UniProt O35683 1-70)
chain: MWFEILPGLAIMGVCLVIPGVSTAYIHKFTNGGKEKRVARVQYQWYLMERDRRISGVNRYYVSKGLENID
For B14, the binding result in experiment [2] is reported as “binds”.

The values are drawn from PMC10803770.
